Measurements published in PMC4773171.
No constants are given. Whether binding was seen depends on the method and setting. Binding seen in cells or lysates may run through a third protein. Binding can be weak; no strength is given.

By UniProt entry, the sequences of proteins in these tests, tags left out. Where a name states a change or a piece, a line headed by the entry shows the natural chain unless it says otherwise.
UniProt Q80Y74: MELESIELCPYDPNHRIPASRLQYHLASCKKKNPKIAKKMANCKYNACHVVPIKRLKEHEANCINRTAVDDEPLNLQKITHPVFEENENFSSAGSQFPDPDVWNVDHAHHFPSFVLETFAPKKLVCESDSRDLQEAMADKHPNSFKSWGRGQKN
UniProt P61407: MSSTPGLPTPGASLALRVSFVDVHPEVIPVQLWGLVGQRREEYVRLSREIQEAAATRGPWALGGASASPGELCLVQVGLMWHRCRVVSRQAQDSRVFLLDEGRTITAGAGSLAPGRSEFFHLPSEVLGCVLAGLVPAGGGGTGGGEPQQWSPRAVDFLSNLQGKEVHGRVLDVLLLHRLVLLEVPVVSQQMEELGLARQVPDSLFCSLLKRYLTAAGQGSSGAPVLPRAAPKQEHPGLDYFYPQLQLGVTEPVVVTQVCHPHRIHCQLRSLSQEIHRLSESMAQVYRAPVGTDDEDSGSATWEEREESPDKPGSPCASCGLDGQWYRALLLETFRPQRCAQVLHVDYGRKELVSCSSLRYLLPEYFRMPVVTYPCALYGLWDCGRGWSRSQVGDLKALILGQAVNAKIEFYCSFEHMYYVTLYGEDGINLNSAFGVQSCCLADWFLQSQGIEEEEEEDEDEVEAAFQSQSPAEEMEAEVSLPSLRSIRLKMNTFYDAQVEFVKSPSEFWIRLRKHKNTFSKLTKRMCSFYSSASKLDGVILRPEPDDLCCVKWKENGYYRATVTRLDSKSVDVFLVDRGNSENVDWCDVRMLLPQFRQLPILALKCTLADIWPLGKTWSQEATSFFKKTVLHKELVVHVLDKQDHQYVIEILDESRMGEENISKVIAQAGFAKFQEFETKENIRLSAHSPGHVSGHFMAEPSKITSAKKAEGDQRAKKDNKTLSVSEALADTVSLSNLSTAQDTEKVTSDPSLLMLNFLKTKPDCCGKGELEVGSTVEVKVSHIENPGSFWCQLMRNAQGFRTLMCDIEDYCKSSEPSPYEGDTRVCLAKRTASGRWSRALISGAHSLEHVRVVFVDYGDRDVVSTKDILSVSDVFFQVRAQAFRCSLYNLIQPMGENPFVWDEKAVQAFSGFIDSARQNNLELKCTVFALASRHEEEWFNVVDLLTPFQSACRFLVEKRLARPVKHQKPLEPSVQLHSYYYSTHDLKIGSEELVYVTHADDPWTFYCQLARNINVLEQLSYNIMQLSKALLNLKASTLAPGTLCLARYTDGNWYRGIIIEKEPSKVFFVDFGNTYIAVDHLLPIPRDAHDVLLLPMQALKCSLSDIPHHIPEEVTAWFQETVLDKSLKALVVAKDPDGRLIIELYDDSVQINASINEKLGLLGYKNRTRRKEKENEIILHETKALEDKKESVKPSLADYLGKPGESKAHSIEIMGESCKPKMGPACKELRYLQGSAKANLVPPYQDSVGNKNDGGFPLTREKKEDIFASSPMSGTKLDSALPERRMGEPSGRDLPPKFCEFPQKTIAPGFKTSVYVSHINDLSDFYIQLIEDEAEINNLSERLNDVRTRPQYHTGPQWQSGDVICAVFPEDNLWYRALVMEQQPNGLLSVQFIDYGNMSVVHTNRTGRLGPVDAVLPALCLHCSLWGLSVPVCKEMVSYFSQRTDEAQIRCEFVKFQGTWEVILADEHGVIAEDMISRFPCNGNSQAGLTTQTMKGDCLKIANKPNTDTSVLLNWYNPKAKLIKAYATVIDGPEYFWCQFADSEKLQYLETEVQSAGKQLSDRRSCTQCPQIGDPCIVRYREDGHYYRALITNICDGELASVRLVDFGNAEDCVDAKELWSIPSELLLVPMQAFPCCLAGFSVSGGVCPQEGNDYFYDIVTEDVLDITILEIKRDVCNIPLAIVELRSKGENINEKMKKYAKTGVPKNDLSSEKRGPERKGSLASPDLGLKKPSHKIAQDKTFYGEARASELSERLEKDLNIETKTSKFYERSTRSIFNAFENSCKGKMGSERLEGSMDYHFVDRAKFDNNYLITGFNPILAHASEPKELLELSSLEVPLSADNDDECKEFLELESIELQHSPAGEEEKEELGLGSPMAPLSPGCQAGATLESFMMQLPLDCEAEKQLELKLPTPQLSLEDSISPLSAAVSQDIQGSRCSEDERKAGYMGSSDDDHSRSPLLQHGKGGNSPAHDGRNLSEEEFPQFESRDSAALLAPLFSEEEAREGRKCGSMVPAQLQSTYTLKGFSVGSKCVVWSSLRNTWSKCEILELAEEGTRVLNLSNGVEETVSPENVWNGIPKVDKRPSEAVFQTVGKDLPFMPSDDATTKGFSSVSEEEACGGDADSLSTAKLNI
UniProt Q9JMB7: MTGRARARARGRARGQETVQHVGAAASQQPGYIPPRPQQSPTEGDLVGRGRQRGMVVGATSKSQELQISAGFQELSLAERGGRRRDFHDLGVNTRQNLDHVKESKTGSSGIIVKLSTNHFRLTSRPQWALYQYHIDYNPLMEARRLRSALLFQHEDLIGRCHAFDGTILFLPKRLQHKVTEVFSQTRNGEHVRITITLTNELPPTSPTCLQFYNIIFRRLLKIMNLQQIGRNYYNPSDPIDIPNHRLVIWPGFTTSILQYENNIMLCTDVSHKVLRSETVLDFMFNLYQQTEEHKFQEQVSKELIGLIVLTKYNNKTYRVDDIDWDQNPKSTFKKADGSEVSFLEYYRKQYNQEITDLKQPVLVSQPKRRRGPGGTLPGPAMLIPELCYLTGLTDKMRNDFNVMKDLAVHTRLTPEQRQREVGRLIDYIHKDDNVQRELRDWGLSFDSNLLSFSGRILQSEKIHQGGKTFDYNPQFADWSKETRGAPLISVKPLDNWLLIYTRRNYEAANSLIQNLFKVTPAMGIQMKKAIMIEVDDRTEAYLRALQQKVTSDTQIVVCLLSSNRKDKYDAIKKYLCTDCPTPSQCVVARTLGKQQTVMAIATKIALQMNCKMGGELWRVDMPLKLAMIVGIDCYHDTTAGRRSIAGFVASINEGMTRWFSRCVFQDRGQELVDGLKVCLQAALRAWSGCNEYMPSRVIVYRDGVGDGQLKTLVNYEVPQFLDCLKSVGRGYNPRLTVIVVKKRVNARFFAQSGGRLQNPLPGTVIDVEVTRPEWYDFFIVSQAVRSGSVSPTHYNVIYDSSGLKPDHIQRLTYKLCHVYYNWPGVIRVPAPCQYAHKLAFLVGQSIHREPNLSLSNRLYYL

Experiments:
[1] = target: GST-fused full-length GTSF2 (mouse) (UniProt Q80Y74); assay: pull-down; GST-fusion protein on Glutathione Sepharose 4B beads; mouse testis lysate, untreated, 2 h at 4°C; binding buffer 20 mM Tris-HCl pH 7.5, 150 mM NaCl, 0.1% NP40; western blotting of the bound fraction; only the target purified
[2] = target: GST-fused full-length GTSF2 (mouse) (UniProt Q80Y74); assay: pull-down; as a1, but testis lysate treated with 40 U/ml RNase A; only the target purified
[3] = target: GST-fused GTSF2 N-terminal region (ZnF) (mouse); assay: pull-down; GST-fusion protein on Glutathione Sepharose 4B beads; mouse testis lysate, untreated, 2 h at 4°C; binding buffer 20 mM Tris-HCl pH 7.5, 150 mM NaCl, 0.1% NP40; western blotting of the bound fraction; only the target purified

binding [1]	binding [2]	binding [3]	Molecule
no binding			TDRD6 (from UniProt P61407 1-2134)
binds	binds		MIWI (from UniProt Q9JMB7 1-862)
binds	binds	binds	TDRD1 (protein, UniProt Q99MV1 1-1172) MMPRNNLEASTCKMAEPFNFEKKESKPPPQDPLRSPVAQHNHPTFRLKSPENGNTKNNFLLCEQNKQYLASQEDSSVVSSNPAVVNGEVGGSKGDRKPPPTGNPVSPLSLGNSSPPNQVKTKPSSNVTPEKSKKSHKLFENALSVNNPALFNSLGPPLRSTTCHRCGLFGSLRCSQCKQTYYCSTACQRRDWSSHSTICRPVQQSLNKLEDNKSPFETKAIEVKSEVDCPPGVTKEITAGAERVMFSDLRSLQLKKTMEIKGTVTEFKHPSNFYIQLYSSEVLENMNQLSTSLKETYANVVPEDGYLPVKGEVCVAKYTVDQTWNRAIVQAVDVLQRKAHVLYIDYGNEEMIPIDSVHPLSRGLDLFPPSAIKCCVSGVIPTAGEWSEGCVAAVKALLFEQFCSVKVMDILEEEVLTCAVDLVLQSSGKQLDHVLVEMGYGVKPGEQSSTEQSVDHSALEDVGRVTVESKIVTDRNALIPKVLTLNVGDEFCGVVAHIQTPEDFFCQQLQSGHKLAELQESLSEYCGHVIPRSDFYPTIGDVCCAQFSEDDQWYRASVLAYASEESVLVGYVDYGNFEILSLKRLCPIIPKLLDLPMQALNCVLAGVKPSLGIWTPEAVCVMKEMVQNRMVTVRVVGMLGTRALVELIDKSVAPHVSASKALIDSGFAIKEKDVADKGSSMHTASVPLAIEGPAEALEWTWVEFTVDETVDVVVCMMYSPGEFYCHFLKDDALEKLDDLNQSLADYCAQKPPNGFKAEIGRPCCAFFSGDGNWYRALVKEILPSGNVKVHFVDYGNVEEVTTDQLQAILPQFLLLPFQGMQCWLVDIQPPNKHWTKEATARFQACVVGLKLQARVVEITANGVGVELTDLSTPYPKIISDVLIREQLVLRCGSPQDSLMSRPANQHKQIDSHRVQASPSAEQWKTMELPVNKTIAANVLEIISPALFYAIPSEMSENQEKLCVLAAELLEHCNAQKGQPAYRPRTGDACCAKYTNDDFWYRAIVLETSESDVKVLYADYGNIETLPLSRVQPIPASHLELPFQIIRCSLEGPMELNGSCSQLVMELLRNAMLNQSVVLSVKAISKNVHAVSVEKCSENGMINIAENLVMCGLAENLTSKRKSASTKEIPHSRDCCCTELQKQIEKHEQILLFLLNNPTNQSKFTEMKKLLRS
